For the experiment, the target named is GroEL from E. coli (E. coli, UniProt P0A6F5 1-548). Kind of experiment: SEC; Rho refolding reaction with GroEL/GroES in the absence of ATP, SEC, SDS-PAGE and anti-Rho immunoblot; both purified. For orientation: SEC sorts molecules by how far they enter the pores of the column.

The chains behind the UniProt entries cited, without tags or fusion partners.
UniProt P0A6F5: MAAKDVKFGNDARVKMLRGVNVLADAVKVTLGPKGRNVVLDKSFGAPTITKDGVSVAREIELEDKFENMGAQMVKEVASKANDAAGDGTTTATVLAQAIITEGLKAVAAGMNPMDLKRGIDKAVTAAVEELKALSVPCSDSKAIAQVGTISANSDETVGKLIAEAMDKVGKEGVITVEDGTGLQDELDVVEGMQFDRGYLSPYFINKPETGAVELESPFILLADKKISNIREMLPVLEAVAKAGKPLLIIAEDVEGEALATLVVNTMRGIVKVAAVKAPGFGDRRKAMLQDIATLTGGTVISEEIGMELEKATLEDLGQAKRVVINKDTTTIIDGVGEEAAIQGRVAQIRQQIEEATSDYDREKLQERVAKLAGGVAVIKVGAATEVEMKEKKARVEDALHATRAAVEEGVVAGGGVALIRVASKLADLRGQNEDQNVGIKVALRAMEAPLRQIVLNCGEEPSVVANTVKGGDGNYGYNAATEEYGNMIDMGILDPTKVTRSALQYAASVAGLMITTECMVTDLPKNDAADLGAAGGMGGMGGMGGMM

No constants are given. Whether binding was seen depends on the method and setting. Some binding calls cover weakened binding; strength is not graded here.

B1: rhodanese (Rho), denatured in 6 M guanidinium-HCl (protein, UniProt P00586 1-297)
chain: MVHQVLYRALVSTKWLAESVRAGKVGPGLRVLDASWYSPGTREARKEYLERHVPGASFFDIEECRDKASPYEVMLPSEAGFADYVGSLGISNDTHVVVYDGDDLGSFYAPRVWWMFRVFGHRTVSVLNGGFRNWLKEGHPVTSEPSRPEPAIFKATLNRSLLKTYEQVLENLESKRFQLVDSRAQGRYLGTQPEPDAVGLDSGHIRGSVNMPFMNFLTEDGFEKSPEELRAMFEAKKVDLTKPLIATCRKGVTACHIALAAYLCGKPDVAIYDGSWFEWFHRAPPETWVSQGKGGKA
For the molecule B1, the binding result was “binds”.

The values are drawn from publication PMC7185714, “Structure and conformational cycle of a bacteriophage-encoded chaperonin” (PLoS ONE, 2020).
